# Laboratory results reported in the supplement of paper PMC11732987, “Enantioselective OTUD7B fragment discovery through chemoproteomics screening and high-throughput optimisation” (Communications Chemistry, 2025).
# Chains of the proteins cited; added tags and fusions are not shown. Lines headed by an entry give the natural chain unless they say otherwise; changes in a name come on top. Residues count along the entry.
# UniProt Q9UJX3, whole entry, looked up: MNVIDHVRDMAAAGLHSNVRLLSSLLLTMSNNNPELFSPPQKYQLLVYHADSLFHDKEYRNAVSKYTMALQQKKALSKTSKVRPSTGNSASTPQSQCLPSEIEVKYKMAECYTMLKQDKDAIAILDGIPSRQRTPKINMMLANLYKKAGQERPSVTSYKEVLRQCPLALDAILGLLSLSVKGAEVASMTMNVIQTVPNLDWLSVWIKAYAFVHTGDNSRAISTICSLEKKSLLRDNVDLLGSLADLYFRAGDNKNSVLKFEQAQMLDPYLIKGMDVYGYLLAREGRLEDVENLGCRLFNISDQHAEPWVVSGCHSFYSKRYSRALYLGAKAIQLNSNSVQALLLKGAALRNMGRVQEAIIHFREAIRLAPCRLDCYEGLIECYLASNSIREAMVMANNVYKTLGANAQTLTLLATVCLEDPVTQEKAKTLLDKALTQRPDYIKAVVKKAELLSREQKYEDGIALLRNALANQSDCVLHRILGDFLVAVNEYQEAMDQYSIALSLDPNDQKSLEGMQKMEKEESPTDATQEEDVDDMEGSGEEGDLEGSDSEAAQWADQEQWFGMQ
# UniProt Q8N556, 675-702: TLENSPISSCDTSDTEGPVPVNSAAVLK
# UniProt Q8N556, 189-208: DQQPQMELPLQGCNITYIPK
# UniProt P52594: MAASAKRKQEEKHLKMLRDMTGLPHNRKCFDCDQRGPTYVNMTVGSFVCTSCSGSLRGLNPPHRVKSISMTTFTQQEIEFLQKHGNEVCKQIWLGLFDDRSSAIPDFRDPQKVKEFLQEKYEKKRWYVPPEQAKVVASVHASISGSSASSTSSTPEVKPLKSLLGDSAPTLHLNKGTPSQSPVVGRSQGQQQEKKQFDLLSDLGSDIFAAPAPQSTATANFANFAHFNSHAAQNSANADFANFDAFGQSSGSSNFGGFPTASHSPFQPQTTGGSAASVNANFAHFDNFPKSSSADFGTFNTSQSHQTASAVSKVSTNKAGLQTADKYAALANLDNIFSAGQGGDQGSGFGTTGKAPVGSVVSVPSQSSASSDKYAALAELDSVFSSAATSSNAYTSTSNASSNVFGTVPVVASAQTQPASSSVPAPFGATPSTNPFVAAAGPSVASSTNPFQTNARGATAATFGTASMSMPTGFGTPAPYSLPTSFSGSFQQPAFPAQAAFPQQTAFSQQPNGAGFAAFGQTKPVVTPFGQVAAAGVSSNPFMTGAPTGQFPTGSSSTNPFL
# UniProt P00568, 172-194: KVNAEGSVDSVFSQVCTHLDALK
# UniProt P53396: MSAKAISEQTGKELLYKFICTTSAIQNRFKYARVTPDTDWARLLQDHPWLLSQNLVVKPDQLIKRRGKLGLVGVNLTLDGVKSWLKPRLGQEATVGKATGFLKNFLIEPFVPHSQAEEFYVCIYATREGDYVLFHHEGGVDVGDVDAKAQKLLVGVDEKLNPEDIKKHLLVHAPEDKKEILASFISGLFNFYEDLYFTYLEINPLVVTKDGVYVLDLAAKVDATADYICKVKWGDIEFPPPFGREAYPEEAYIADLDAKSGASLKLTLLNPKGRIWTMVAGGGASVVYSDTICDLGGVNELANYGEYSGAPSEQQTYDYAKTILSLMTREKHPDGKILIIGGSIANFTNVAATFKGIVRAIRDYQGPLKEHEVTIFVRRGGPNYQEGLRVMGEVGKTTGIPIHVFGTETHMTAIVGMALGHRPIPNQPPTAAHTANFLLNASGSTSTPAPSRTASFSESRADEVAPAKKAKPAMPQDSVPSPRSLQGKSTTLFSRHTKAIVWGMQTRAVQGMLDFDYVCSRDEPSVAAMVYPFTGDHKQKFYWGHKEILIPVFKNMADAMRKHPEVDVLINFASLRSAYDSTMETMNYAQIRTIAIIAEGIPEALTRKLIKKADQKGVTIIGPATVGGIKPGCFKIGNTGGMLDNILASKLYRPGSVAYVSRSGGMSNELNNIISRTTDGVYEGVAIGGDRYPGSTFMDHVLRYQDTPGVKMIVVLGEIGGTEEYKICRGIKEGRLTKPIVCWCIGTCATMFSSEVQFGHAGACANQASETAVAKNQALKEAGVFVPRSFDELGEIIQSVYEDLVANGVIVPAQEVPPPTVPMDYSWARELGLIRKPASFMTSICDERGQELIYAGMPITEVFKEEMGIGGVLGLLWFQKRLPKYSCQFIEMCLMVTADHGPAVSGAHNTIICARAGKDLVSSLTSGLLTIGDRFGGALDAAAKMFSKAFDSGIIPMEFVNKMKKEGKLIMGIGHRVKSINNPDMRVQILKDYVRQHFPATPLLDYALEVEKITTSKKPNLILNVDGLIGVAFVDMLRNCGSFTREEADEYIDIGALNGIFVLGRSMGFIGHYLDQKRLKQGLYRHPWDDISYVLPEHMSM
# UniProt Q02040, 136-157: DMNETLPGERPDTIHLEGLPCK
# UniProt O60503: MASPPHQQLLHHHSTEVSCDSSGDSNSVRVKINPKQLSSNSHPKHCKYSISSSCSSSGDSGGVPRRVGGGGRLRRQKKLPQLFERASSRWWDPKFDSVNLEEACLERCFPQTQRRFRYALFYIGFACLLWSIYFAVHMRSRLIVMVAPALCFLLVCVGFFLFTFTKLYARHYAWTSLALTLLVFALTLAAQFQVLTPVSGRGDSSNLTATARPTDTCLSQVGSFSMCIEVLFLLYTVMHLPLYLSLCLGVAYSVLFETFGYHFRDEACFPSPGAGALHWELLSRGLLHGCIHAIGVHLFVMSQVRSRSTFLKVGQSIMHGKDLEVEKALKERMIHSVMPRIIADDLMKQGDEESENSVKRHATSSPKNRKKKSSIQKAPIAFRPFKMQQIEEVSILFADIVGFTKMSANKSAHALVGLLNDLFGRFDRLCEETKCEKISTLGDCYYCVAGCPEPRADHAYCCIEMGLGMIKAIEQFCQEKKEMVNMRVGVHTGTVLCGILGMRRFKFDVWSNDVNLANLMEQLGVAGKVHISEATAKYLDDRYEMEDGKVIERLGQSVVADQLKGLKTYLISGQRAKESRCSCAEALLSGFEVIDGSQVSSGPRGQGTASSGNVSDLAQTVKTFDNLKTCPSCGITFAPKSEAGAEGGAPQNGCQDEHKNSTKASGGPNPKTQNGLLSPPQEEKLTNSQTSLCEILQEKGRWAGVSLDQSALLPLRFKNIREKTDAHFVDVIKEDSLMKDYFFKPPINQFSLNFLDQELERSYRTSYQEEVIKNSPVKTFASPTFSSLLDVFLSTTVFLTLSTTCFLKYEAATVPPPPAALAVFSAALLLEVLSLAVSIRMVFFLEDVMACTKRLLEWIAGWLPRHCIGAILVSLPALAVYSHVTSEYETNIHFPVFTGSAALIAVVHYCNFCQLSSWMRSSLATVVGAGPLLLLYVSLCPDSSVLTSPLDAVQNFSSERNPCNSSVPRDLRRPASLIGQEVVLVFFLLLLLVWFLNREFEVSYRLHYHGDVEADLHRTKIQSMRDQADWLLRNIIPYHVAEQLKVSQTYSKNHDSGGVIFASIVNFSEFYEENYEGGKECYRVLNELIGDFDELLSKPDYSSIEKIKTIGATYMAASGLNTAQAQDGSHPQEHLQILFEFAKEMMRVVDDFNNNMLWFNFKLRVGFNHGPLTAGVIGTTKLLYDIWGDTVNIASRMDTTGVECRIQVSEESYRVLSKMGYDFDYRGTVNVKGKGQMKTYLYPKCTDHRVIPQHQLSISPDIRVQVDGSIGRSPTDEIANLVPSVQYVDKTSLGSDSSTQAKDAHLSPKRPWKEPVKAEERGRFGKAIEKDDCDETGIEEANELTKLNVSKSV
# UniProt Q96AP0: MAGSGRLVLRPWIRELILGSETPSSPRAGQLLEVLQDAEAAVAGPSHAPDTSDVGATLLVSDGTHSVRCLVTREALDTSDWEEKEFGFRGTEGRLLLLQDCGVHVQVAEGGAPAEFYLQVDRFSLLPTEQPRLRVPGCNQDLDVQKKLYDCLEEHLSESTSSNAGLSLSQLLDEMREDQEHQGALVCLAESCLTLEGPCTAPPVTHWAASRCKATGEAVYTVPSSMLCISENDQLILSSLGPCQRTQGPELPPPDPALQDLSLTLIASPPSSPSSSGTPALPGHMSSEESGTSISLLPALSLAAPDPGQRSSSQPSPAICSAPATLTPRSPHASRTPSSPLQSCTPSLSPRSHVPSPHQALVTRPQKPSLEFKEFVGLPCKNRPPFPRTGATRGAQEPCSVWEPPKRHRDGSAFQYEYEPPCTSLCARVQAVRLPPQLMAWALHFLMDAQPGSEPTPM
# UniProt Q13686, 292-315: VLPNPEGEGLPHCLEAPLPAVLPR
# UniProt O95433, 42-63: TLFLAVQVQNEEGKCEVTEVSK
# UniProt P55265: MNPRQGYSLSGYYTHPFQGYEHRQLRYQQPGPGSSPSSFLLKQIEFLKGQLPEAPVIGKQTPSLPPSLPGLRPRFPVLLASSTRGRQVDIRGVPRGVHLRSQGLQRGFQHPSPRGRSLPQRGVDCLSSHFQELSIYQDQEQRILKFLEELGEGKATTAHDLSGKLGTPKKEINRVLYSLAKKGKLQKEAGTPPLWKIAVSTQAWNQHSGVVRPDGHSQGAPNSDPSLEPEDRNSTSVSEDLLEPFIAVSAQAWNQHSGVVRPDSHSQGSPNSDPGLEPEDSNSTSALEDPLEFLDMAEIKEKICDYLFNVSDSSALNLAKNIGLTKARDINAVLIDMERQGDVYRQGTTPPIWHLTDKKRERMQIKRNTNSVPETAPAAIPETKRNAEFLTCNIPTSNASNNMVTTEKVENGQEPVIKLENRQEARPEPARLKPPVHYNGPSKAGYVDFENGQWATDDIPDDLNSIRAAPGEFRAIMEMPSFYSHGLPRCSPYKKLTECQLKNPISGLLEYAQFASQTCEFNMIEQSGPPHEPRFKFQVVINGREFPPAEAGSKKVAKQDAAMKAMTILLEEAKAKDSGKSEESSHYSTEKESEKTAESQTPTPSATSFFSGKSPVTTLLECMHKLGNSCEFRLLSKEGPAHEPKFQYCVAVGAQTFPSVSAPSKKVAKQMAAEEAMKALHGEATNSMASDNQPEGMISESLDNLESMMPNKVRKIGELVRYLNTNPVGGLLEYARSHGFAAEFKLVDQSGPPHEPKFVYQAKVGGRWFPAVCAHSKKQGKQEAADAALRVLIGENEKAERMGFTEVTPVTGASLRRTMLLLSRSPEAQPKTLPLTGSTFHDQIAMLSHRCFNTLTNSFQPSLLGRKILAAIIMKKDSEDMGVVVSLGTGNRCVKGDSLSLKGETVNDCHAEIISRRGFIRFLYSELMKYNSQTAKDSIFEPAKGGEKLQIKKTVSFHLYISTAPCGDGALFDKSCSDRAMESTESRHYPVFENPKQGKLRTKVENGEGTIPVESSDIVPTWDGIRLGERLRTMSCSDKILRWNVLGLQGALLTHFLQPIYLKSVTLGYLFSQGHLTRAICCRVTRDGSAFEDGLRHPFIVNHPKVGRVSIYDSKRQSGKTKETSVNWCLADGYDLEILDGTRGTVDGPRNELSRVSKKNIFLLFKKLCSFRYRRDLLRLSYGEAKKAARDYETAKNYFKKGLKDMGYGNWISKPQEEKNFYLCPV
# UniProt P13716: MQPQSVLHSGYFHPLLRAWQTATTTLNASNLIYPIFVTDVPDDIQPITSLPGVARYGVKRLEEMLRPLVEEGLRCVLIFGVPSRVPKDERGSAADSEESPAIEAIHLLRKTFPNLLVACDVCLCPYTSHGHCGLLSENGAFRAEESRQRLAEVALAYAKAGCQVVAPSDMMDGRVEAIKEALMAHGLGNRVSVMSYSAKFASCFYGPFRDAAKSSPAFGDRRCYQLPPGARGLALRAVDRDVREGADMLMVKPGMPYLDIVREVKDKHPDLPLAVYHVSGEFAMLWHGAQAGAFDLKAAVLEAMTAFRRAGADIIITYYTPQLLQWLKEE
# UniProt Q01433: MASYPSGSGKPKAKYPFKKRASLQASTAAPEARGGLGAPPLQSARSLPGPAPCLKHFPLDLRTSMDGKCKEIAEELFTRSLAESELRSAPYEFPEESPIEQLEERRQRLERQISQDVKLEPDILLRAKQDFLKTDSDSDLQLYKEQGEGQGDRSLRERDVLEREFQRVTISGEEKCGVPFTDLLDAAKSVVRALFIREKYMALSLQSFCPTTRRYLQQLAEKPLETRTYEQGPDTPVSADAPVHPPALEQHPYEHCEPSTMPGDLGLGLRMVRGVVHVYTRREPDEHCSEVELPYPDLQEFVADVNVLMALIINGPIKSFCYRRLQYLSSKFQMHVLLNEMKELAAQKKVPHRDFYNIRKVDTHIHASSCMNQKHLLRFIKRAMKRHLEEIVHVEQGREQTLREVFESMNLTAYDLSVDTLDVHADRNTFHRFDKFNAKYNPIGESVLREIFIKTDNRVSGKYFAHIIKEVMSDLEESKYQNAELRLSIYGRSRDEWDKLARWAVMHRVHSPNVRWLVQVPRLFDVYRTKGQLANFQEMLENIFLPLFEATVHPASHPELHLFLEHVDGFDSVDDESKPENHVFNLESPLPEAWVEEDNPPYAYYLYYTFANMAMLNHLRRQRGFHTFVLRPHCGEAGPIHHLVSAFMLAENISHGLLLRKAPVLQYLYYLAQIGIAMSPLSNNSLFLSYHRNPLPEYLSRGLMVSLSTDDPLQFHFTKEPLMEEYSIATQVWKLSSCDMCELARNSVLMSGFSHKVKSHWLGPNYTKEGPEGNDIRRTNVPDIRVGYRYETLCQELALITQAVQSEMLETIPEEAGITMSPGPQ
# Some of the results follow. The data scatter; read single values as rough.
# Assays:
# [1] = compound: ClCC(=O)N[C@@H]1CCCc2ccccc12; assay: log2 mean competition ratio of IA-DTB cysteine labelling (DMSO/compound) (log2 ratio); higher = stronger cysteine engagement by compound; details: treatment time: 4 h, cell line lysate: HEK293T
# Method: (§1)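 IA-DTB competitive cysteine chemoproteomics in HEK293T RIPA lysate. Lysates were treated with compound 29 or 30 at 50 or 200 µM for 4 h, then IA-DTB (500 µM, 1 h), trypsin-digested, NeutrAvidin-enriched and analysed by diaPASEF. Competition ratio = intensity DMSO / intensity compound (n=4 treated, n=64 DMSO); binding: mean log2 CR ≥ 1 and p ≤ 0.05 plus QC filters. Target is the cysteine site.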
# [2] = compound: ClCC(=O)N[C@H]1CCCc2ccccc12; assay: as above; details: treatment time: 4 h, cell line lysate: HEK293T
# Method: as §1
Target,log2 mean competition ratio ([1]; 50 µM),log2 mean competition ratio ([1]; 200 µM),log2 mean competition ratio ([2]; 50 µM),log2 mean competition ratio ([2]; 200 µM)
ADAM15 C560 (UniProt Q13444),-0.303,-0.182,-0.139,0.185
AKAP9 C3521 (UniProt Q99996),-0.225,-0.463,0.151,-0.465
ALKBH2 C165 (UniProt Q6NS38),0.194,0.655,-0.0831,-0.114
ANAPC7 C225 (UniProt Q9UJX3),-0.0301,0.0423,0.137,0.00101
ADAL C10 (UniProt Q6DHV7),-0.1,-0.0206,-0.074,0.326
ADAM17 C469 (UniProt P78536),-0.124,0.214,-0.0653,0.132
AFAP1 C684 (UniProt Q8N556),0.105,-0.443,0.35,-0.335
ALG13 C424 (UniProt Q9NP73),0.201,-0.335,1.52,-0.025
AHCYL1 C272 (UniProt O43865),-0.033,-0.113,-0.14,-0.107
ANAPC7 C295 (UniProt Q9UJX3),0.17,0.0379,-0.0953,0.126
AKR1A1 C134 (UniProt P14550),-0.357,-0.037,-0.419,-0.309
AGFG1 C89 (UniProt P52594),-0.148,0.113,-0.374,-0.136
ALMS1 C2489 (UniProt Q8TCU4),0.203,0.324,-0.272,0.0343
AK1 C187 (UniProt P00568),0.376,0.291,-0.00748,0.0433
ACLY C845 (UniProt P53396),0.116,0.0797,-0.0861,0.0223
AKAP17A C156 (UniProt Q02040),-0.366,0.496,-0.295,0.208
ADPRS C132,-0.206,0.183,-0.195,0.105
ALX1 C248,0.0357,0.061,-0.374,0.0874
ADCY9 C654 (UniProt O60503),-0.439,-0.00984,-0.231,-0.237
ACD C320 (UniProt Q96AP0),-0.279,-0.00223,0.124,0.0618
AKAP1 C438 (UniProt Q92667),0.113,-0.0394,0.769,0.26
ALKBH1 C304 (UniProt Q13686),0.325,0.0494,-0.138,-0.155
ACIN1 C691,-0.323,-0.00895,-0.0777,-0.092
AGO2 C462,0.0895,0.271,-0.405,0.0976
AGTPBP1 C305 (UniProt Q9UPW5),-0.0426,0.0203,0.226,0.00712

# Record cards (already shown). Order of values: log2 mean competition ratio ([1]; 50 µM) | log2 mean competition ratio ([1]; 200 µM) | log2 mean competition ratio ([2]; 50 µM) | log2 mean competition ratio ([2]; 200 µM)
# AHCYL1 C272 (UniProt O43865) as listed: -0.033 | -0.113 | -0.14 | -0.107
# ANAPC7 C295 (UniProt Q9UJX3) as listed: 0.17 | 0.0379 | -0.0953 | 0.126
# ADCY9 C654 (UniProt O60503) as listed: -0.439 | -0.00984 | -0.231 | -0.237

# Carrying on.

Target,log2 mean competition ratio ([1]; 50 µM),log2 mean competition ratio ([1]; 200 µM),log2 mean competition ratio ([2]; 50 µM),log2 mean competition ratio ([2]; 200 µM)
AGK C72 (UniProt Q53H12),0.106,-0.0386,0.308,0.0538
ANKFY1 C675 (UniProt Q9P2R3),-0.0584,-0.407,-0.69,-0.26
AKAP17A C522 (UniProt Q02040),-0.0586,0.204,-0.192,0.288
AGPAT1 C229 (UniProt Q99943),-0.081,0.113,-0.0448,0.0833
ADGRA2 C1147,0.133,-0.104,-0.0626,0.00946
ADSL C483 (UniProt P30566),-0.00304,0.373,-0.13,0.521
ALDH1L2 C389 (UniProt Q3SY69),0.399,-0.0413,0.0052,-0.348
ACTR10 C27 (UniProt Q9NZ32),-0.0828,-0.177,-0.00282,-0.158
AFAP1 C201 (UniProt Q8N556),0.108,1.11,-0.349,0.244
ADCY9 C693 (UniProt O60503),-0.279,0.252,-0.349,0.591
AGAP3 C263 (UniProt Q96P47),-0.228,0.053,0.734,0.364
AGTPBP1 C971 (UniProt Q9UPW5),-0.0409,0.213,-0.0381,0.196
ACSF3 C83 (UniProt Q4G176),-0.271,0.181,-0.0158,0.178
AHSA1 C56 (UniProt O95433),-0.382,0.0328,0.12,-0.147
ADAR C909 (UniProt P55265),-0.25,0.0229,-0.372,0.0117
AKAP13 C418 (UniProt Q12802),-0.046,0.159,0.0952,0.179
ALAD C223 (UniProt P13716),0.22,-0.0502,0.134,0.162
ALS2 C916 (UniProt Q96Q42),-0.022,0.0606,-0.0251,0.0106
ACTA2 C219,0.175,0.0588,0.644,-0.12
ALDH6A1 C86 (UniProt Q02252),-0.167,0.0215,0.319,0.0934
AIP C208 (UniProt O00170),0.29,-0.07,0.281,-0.0187
AMPD2 C123 (UniProt Q01433),0.271,0.221,0.108,0.297
ALDH5A1 C272 (UniProt P51649),-0.163,-0.0812,-0.0507,-0.00771
AFG3L2 C313 (UniProt Q9Y4W6),0.13,0.251,-0.197,0.0394
